Results as given in patent US20130330334A1.
Positions count from the first letter of the chain named. Results are given in words; binding and its absence hold for the method and conditions named. Some entries that bind do so weakly or less than the wild type.

B1: modified anti-CD4 antibody VH1/VK1 (antibody, V domains shown)
VH: EVQLQQSGSELKRPGASVKVSCKASGYTFANYWMHWVRQAPGQGLQWIGALYPGNVDTTYNQKFKDKAKITRDTSASTAYMELSSLTNEDTAVYYCTRMGTTLEAPLDYWGQGTLVTVSS
VL: QIVLTQSPATLSASPGEKAAMTCSARSSVSYLYWYQQKPGSSPRALIYDTSNLASGVPSRFSGSGSGTDYSLTISSMEAEDAATYYCQQWSDYPLTFGAGTKLEIK
B2: modified anti-CD4 antibody VH2/VK2 (antibody, V domains shown)
VH: B1 VH with R38K, I70L, R72A
VL: B1 VL with A45L
B3: modified anti-CD4 antibody VH4/VK2 (antibody, V domains shown)
VH: B1 VH with S9T, V20M, R38K, I70L, R72A, D73V, T91S, L115T
VL: B1 VL with A45L
B4: modified anti-CD4 antibody VH4/VK4 (antibody, V domains shown)
VH: B1 VH with S9T, V20M, R38K, I70L, R72A, D73V, T91S, L115T
VL: B1 VL with T10I, A45L, S62I
B5: modified anti-CD4 antibody VH2/VK4 (antibody, V domains shown)
VH: B1 VH with R38K, I70L, R72A
VL: B1 VL with T10I, A45L, S62I
B6: modified anti-CD4 antibody VH3/VK2 (antibody, V domains shown)
VH: B1 VH with V20M, R38K, I70L, R72A, D73V
VL: B1 VL with A45L
B7: modified anti-CD4 antibody VH3/VK4 (antibody, V domains shown)
VH: B1 VH with V20M, R38K, I70L, R72A, D73V
VL: B1 VL with T10I, A45L, S62I
B8: chimeric anti human CD4-antibody (chimeric IgG4) (antibody, V domains shown)
VH: EVQLQQSGTVLARPGASVQMSCKASGYSFANYWMHWVKQRPGQGLQWIGALYPGNVDTTYNQKFKDKAKLTAVTSASTAYMELSSLTNEDSAVYYCTRMGTTLEAPLDYWGQGTTLTVSS
VL: B1 VL with T10I, L11M, A19V, A45L, S59V, S62I, D69S, S76R, I105L
B9: monoclonal mouse anti human CD4-antibody 30F16H5 (antibody, mouse IgG1, V domains shown)
VH: B8 VH
VL: B1 VL with T10I, L11M, A19V, A45L, S59V, S62I, D69S, S76R, I105L

biological target: human CD4 (coated on ELISA plate) (human) (UniProt P01730); assay: competition ELISA, plate-coated human CD4

Binder | binding
B1 | binds
B2 | binds
B3 | binds
B4 | binds
B5 | binds
B6 | binds
B7 | binds

biological target: human CD4 (coated on ELISA plate) (human) (UniProt P01730); assay: competition ELISA, plate-coated CD4

Binder | binding
B8 | binds
B9 | binds
